Holding throughout (assay): co-IP
In assay [1] the target is Flag-P65 (mouse NF-kB p65, full length) (mouse) (UniProt Q04207).
For assay [2], the target named is Flag-P65^DM (K301R/K303R) (mouse) (UniProt Q04207).
In assay [3] the target is Flag-P65 (mouse NF-kB p65, full length) (mouse) (UniProt Q04207). The source holds these as a separate data set.

The chains behind the UniProt entries cited, without tags or fusion partners. Where a name states a change or a piece, a line headed by the entry shows the natural chain unless it says otherwise.
UniProt Q04207, whole entry: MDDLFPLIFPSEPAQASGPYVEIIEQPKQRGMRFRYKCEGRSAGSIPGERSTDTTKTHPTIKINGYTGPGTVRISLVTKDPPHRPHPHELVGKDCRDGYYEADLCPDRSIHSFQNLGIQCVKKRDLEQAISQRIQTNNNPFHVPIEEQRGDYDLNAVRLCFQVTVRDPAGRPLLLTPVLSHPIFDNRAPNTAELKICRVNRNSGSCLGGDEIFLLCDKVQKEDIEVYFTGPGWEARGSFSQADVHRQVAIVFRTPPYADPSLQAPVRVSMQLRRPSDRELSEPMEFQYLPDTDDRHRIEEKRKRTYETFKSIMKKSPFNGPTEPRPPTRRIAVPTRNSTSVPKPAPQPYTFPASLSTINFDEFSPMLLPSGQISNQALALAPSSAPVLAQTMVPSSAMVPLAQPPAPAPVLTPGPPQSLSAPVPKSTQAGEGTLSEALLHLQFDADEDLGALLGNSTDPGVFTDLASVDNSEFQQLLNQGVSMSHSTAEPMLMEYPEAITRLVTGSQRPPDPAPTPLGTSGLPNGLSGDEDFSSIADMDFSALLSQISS
UniProt O35343, whole entry: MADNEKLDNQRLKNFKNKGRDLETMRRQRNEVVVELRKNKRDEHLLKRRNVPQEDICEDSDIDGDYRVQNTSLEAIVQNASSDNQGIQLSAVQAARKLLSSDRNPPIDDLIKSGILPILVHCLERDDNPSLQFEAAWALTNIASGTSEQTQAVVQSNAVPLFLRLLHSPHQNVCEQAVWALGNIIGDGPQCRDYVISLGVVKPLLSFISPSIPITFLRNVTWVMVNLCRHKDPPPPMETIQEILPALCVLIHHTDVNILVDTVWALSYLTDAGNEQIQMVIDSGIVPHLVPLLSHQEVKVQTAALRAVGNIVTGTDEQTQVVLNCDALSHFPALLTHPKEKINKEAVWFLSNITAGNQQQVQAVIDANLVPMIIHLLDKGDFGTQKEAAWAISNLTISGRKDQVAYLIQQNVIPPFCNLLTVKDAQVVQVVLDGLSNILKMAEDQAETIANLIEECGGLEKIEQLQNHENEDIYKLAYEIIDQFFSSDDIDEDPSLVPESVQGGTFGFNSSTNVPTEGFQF
UniProt O35344, whole entry: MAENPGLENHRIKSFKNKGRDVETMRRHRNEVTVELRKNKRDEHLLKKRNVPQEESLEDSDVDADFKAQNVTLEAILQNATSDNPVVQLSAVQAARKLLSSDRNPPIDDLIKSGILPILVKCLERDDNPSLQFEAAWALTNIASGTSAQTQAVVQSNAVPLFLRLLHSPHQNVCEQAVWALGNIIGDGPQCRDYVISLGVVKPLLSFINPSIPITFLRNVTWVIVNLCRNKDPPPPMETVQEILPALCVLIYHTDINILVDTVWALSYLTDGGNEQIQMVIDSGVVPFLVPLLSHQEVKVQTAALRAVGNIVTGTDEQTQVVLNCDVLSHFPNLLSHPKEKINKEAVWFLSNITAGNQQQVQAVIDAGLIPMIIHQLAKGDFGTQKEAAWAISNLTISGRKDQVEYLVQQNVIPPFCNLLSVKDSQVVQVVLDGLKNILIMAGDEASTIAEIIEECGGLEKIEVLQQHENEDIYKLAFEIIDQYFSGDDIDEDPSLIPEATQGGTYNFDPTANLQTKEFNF

Like-named read-outs stand apart in the source and are kept apart here. No constants are given. Whether binding was seen depends on the method and setting. Binding seen in cells or lysates may run through a third protein. Some entries that bind do so weakly or less than the wild type. For part of these data: Tags and fused reporters may be left off the sequences shown.

Consider “HA-importin α3 (from UniProt O35343 1-521)”, for which the binding result in assay [1] and in assay [2] was “binds” each time.

Regarding “HA-importin α4 (from UniProt O35344 1-521)”, the binding result in assay [1] and in assay [2] was “binds” each time.

B1: Myc-Sharpin (protein, UniProt Q91WA6 1-380)
chain: MSPPAGGAAVAADPASPVVLLAVHAAVRPLGAGQDAEAQPRKLQLIADPERPGRFRLGLLGTEPGAVSLEWPLEAICYTVRGPNQHELQPPPGGPGTFSVHFLDPEEAQQWAALVRDATAEGQNGSGSPAPAPAPAMCPISPPCSSMAQIPKATQPEVDLPQSSGNFKKEELATRLSQAIAGGDEKAAAQVAAVLAQHHVALNVQLMEAWFPPGPIRLQVTVEDATSVLSSSSSAHVSLKIHPHCSIAALQDQVFSEFGFPPAVQRWVIGRCLCMPERSLASYGVSQDGDPAFLYLLSAPREVSGQSLQNSKMDRKLGLFPQSLGLPHDLQPSSSSLPSPSQPGWSCPSCTFINASNRPGCEMCSTQRPCAWDPLAAAST
On to B1, for which the binding entry in assay [3] is reported as “binds”.

B2: Myc-HOIL-1 (enzyme, UniProt Q9WUB0 1-508)
chain: MDEKTKKAEEMALSLARAVAGGDEQAAIKYATWLAEQRVPLRVQVKPEVSPTQDIRLCVSVEDAYMHTVTIWLTVRPDMTVASLKDMVFLDYGFPPSLQQWVVGQRLARDQETLHSHGIRRNGDGAYLYLLSARNTSLNPQELQRQRQLRMLEDLGFKDLTLQSRGPLEPVLPKPRTNQEPGQPDAAPESPPVGWQCPGCTFINKPTRPGCEMCCRARPETYQIPASYQPDEEERARLAGEEEALRQYQQRKQQQQEGNYLQHVQLEQRSLVLNTEPTECPVCYSVLAPGEAVVLRECLHTFCRECLQGTIRNSQEAEVACPFIDSTYSCPGKLLEREIRALLSPEDYQRFLDLGVSIAENRSTLSYHCKTPDCRGWCFFEDDVNEFTCPVCTRVNCLLCKAIHEHMNCREYQDDLALRAQNDVAARQTTEMLKVMLQQGEAMHCPQCRIVVQKKDGCDWIRCTVCHTEICWVTKGPRWGPGGPGDTSGGCRCRVNGIPCHPSCQNCH
On to B2, for which, in assay [3], the binding entry is listed as “binds”.

Source of the values: article doi:10.1101/2024.04.03.587858.
